Results are given in words; binding and its absence hold for the method and conditions named.
Tests used:
[1] = molecular target: Human profilin-1 (human) (UniProt P07737); assay: dynamic light scattering; 0.8 mg mL^-1 profilin-1 in G-buffer (20 mM Tris/HCl, 2 mM DTT, 0.1 mM CaCl2, 0.2 mM NaN3, pH 7.3), 25 °C; native protein; hydrodynamic diameter compared with those expected for monomer, dimer and tetramer; both purified
[2] = molecular target: Human profilin-1 (human) (UniProt P07737); assay: dynamic light scattering; 0.8 mg mL^-1 profilin-1 in 20 mM HCl pH 1.7, 25 °C; acid-unfolded protein; both purified
[3] = molecular target: Human profilin-1 (human) (UniProt P07737); assay: dynamic light scattering; 0.8 mg mL^-1 profilin-1 in G-buffer containing 8 M urea, 25 °C; urea-unfolded protein; both purified

By UniProt entry, the sequences of proteins in these tests, tags left out. Residues count along the entry.
UniProt P07737, residues 2-140: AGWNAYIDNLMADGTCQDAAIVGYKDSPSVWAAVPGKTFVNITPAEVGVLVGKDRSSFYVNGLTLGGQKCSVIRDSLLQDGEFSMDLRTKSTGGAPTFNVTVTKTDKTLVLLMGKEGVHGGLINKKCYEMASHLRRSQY

binding [1]: no binding (tested: 0.8 mg mL^-1)
binding [2]: no binding (tested: 0.8 mg mL^-1)
binding [3]: no binding (tested: 0.8 mg mL^-1)
Substance: Human profilin-1 (from UniProt P07737 2-140) (other; other documents disagree on this pair)

From paper PMC4521207
